In publication PMC5432285:
No constants are given. Whether binding was seen depends on the method and setting. In cells and extracts the contact can be indirect. Some entries that bind do so weakly or less than the wild type.

Amino acid sequences for entries named in this document (tags omitted).
UniProt O95931: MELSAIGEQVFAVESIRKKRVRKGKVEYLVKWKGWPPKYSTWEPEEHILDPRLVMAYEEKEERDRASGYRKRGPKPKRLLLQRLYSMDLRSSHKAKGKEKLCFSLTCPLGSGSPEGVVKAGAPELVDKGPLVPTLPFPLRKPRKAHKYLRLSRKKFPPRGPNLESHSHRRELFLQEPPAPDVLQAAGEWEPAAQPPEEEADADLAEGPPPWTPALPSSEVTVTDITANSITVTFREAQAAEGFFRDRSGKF
UniProt Q92769: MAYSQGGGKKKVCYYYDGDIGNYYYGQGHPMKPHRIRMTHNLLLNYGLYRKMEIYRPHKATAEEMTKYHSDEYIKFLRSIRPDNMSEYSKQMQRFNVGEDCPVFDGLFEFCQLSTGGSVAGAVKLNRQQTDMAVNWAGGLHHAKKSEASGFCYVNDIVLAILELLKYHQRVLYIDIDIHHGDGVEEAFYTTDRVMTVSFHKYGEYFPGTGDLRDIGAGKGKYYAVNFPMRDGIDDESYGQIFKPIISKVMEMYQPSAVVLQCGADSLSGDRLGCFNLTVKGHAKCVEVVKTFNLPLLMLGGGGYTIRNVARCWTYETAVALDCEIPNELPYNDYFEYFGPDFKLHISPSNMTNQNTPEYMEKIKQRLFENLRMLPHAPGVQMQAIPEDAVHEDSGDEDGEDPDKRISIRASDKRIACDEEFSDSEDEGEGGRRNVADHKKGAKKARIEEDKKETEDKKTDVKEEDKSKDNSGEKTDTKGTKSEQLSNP

Target: Chromobox homolog 7 (human (endogenous in U251, U87, LN229)) (UniProt O95931)
Assay: co-IP; lysates of U251, U87 and LN229 cells; IP with anti-CBX7 antibody (or nonspecific IgG) and blot with anti-HDAC2, and conversely IP with anti-HDAC2 and blot with anti-CBX7; overnight at 4°C, protein A/G plus-agarose

binding: binds
Substance: histone deacetylase 2 (from UniProt Q92769 1-488)
